Laboratory results reported in article PMC7862700.
The list shows a part of the results. The exact form of the protein is not confirmed.

These sequences were tested against T1, ELF2 (UniProt Q15723) (assay: DAPPL (digital affinity profiling via proximity ligation, sequencing)). Conditions: 10 mM Tris-HCl pH 7.5, 50 mM NaCl, 1 mM DTT, 4% glycerol, room temperature, 30 min; GST-TFs on glutathione beads, 16-mer random dsDNA library, 0.1% …; high values mean tight binding; double strand, one strand shown; scale: fold enrichment (6-mer frequency, TF over GST control).
T1 sequence: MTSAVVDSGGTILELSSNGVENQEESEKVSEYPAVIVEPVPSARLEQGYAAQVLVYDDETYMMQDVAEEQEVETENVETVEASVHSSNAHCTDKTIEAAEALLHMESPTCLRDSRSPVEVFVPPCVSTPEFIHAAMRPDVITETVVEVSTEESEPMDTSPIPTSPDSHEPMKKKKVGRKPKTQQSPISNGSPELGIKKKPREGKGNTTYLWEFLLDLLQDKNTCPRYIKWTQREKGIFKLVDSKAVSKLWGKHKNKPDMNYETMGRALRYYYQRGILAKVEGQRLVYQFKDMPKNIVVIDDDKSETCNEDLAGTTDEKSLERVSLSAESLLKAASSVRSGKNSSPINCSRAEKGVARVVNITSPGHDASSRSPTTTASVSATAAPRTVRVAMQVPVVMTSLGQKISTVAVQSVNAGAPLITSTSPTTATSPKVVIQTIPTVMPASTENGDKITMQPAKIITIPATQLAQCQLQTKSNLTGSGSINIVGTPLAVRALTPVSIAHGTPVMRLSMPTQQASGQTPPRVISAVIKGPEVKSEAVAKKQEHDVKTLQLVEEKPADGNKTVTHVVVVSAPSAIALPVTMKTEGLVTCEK

Row | Sequence | binding signal
1 | AATACT | 1.23
2 | ATTGTC | 1.11
3 | CCAGCT | 0.916
4 | AACCCT | 1.23
5 | ATTATC | 1.33
6 | AAACTT | 1.32
7 | AGAACT | 0.963
8 | AACTAG | 1.14
9 | CTACCT | 1.4
10 | CCTAGC | 1.11
11 | TCCGAG | 0.931
12 | CACGAC | 1.17
13 | TTTGAT | 1.19
14 | GCAATC | 1.01
15 | TCTGGA | 0.956
16 | CGAAGG | 0.92
17 | ATTTTC | 1.46
18 | CCCAGA | 0.846
19 | AAGCTA | 1.13
20 | CGATGG | 1.26

Shown as tab-separated lines: part of the list above.
Row	Sequence	binding signal
6	AAACTT	1.32
7	AGAACT	0.963
8	AACTAG	1.14
9	CTACCT	1.4
10	CCTAGC	1.11
11	TCCGAG	0.931
12	CACGAC	1.17
13	TTTGAT	1.19
14	GCAATC	1.01
15	TCTGGA	0.956
16	CGAAGG	0.92
17	ATTTTC	1.46

More records

Row | Sequence | binding signal
21 | CTGACA | 1.18
22 | GCAGAA | 0.874
23 | ACTTGC | 1.34
24 | CACTAT | 1.18
25 | GATCAT | 0.913
26 | TTATCC | 1.53
27 | TTACGG | 1.36
28 | CTATTA | 1.08
29 | CCTTCA | 1.35
30 | ACAACT | 1.38
31 | TTCTAC | 1.51
32 | TTTCAC | 1.35
33 | TTGGAA | 0.937
34 | GAAGGT | 0.885
35 | TAACGG | 1.04
36 | ATGGGC | 1.19
37 | TAATCG | 0.99
38 | ATGAAC | 1.24
39 | ACCTAG | 0.914
40 | ATCCAC | 1.19
